The text below walks through data of article PMC6777938, “Evolutionary emergence of Hairless as a novel component of the Notch signaling pathway” (eLife, 2019).

Chains of the proteins cited; added tags and fusions are not shown.
UniProt O46036: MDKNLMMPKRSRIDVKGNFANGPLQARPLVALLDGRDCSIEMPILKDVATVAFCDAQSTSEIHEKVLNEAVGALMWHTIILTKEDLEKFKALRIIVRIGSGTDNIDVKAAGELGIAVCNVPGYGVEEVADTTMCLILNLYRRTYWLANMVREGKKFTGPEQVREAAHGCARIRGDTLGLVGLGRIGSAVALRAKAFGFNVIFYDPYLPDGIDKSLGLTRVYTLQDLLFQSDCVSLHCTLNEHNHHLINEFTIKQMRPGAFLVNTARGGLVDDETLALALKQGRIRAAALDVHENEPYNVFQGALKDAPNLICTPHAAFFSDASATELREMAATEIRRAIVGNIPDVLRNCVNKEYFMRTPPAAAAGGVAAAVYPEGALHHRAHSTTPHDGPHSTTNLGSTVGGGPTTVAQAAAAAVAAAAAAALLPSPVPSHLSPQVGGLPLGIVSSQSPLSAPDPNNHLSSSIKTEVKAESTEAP

No constants are given. Whether binding was seen depends on the method and setting. Binding seen in cells or lysates may run through a third protein. Some entries that bind do so weakly or less than the wild type. Sequences can lack the tags named with a protein.

This assay has as its target GST-tagged Drosophila CtBP (Drosophila melanogaster) (UniProt O46036). The assay is described as follows: pull-down; in vitro; GST-dCtBP bound to Glutathione Sepharose beads, His-tagged Strigamia Su(H) fragment in solution; detection by anti-His blot.

B1: His-tagged 116-aa segment of Strigamia maritima Su(H) (exons 2-3), wild type (domain or fragment)
chain: GQYDYPPPLASTYSREADLWNVNLATYSSAPTTCTGATPAPSVTGFYAQATGSNSVSPSSVSLTTLTPHFADNHPVDLSNSHRGEGGHLDLVRFQSDRVDAYKHANGLSVHIPDHHA
With B1, the binding entry is recorded as “binds”.
